Reference: PMC4294364
No constants are given. Whether binding was seen depends on the method and setting. Binding seen in cells or lysates may run through a third protein. Some entries that bind do so weakly or less than the wild type.

Amino acid sequences for entries named in this document (tags omitted). Residues count along the entry.
UniProt Q04206: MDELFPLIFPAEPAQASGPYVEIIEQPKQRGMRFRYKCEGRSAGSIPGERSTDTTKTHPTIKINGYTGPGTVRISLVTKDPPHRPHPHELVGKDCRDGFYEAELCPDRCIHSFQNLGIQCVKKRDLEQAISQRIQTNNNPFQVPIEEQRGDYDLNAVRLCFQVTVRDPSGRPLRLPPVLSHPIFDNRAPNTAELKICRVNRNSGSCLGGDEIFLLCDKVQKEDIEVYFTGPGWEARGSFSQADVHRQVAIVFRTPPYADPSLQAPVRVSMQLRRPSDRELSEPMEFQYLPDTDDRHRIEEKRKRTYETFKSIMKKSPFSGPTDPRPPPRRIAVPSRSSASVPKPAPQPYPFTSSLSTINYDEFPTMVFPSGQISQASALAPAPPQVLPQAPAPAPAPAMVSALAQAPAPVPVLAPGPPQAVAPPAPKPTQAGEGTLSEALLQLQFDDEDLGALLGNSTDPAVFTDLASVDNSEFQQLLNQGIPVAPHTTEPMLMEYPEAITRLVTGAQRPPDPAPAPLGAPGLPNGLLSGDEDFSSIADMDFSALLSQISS
UniProt P19838, residues 1-433: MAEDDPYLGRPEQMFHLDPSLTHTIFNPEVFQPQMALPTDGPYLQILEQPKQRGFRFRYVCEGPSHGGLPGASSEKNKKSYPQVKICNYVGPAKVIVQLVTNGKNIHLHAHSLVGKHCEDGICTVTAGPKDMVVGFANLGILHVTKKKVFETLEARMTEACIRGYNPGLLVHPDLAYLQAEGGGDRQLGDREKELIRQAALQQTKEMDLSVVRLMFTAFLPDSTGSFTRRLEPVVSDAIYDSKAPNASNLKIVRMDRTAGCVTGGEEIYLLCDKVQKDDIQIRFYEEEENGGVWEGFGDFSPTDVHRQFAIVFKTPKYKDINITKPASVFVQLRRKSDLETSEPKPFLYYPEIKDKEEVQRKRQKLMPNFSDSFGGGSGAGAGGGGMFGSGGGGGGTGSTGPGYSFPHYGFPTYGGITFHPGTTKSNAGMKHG

Molecular target: p65 (RelA) (human (endogenous in SMMC-7721)) (UniProt Q04206)
Assay: co-IP; extracts of SMMC-7721 cells; IP with anti-p65 antibody and protein G plus/protein A agarose, 4 °C overnight; washes with 50 mM Tris-HCl pH 7.9, 150 mM NaCl, 1% NP-40; p50 detected by immunoblot; cells preincubated with EriB for 3 h before TNF-α (10 ng/ml) stimulation

- binding: binds
Substance: p50 (NF-κB1 p50 subunit) (from UniProt P19838 1-433)
